The target in the assay is T1, TRAF2, endogenous (human (endogenous in 293T, HeLa, THP1)) (UniProt Q12933).
T1 sequence: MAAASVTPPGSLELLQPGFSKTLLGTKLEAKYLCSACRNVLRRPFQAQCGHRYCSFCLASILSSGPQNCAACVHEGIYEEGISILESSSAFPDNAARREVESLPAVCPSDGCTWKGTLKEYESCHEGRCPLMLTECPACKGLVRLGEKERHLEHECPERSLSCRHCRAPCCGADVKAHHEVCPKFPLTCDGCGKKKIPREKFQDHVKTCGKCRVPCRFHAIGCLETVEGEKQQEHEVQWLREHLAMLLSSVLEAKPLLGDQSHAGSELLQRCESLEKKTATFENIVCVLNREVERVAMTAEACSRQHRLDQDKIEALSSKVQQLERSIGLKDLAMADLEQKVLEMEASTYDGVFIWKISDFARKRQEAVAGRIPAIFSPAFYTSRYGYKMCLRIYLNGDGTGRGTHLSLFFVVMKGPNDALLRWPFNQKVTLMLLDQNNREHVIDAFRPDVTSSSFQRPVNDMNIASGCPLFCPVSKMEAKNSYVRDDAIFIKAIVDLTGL
Description: co-IP; endogenous proteins; lysates of non-stimulated 293T, HeLa and THP1 cells immunoprecipitated with anti-TRAF2, 3 or 6 antibodies, Western blot. (In general: Immunoblotting shows a protein as a band on a membrane.)

No constants are given. Whether binding was seen depends on the method and setting. In cells and extracts the contact can be indirect. Some binding calls cover weakened binding; strength is not graded here.

B1: IKKε, endogenous (protein, UniProt Q14164 1-716)
chain: MQSTANYLWHTDDLLGQGATASVYKARNKKSGELVAVKVFNTTSYLRPREVQVREFEVLRKLNHQNIVKLFAVEETGGSRQKVLVMEYCSSGSLLSVLESPENAFGLPEDEFLVVLRCVVAGMNHLRENGIVHRDIKPGNIMRLVGEEGQSIYKLTDFGAARELDDDEKFVSVYGTEEYLHPDMYERAVLRKPQQKAFGVTVDLWSIGVTLYHAATGSLPFIPFGGPRRNKEIMYRITTEKPAGAIAGAQRRENGPLEWSYTLPITCQLSLGLQSQLVPILANILEVEQAKCWGFDQFFAETSDILQRVVVHVFSLSQAVLHHIYIHAHNTIAIFQEAVHKQTSVAPRHQEYLFEGHLCVLEPSVSAQHIAHTTASSPLTLFSTAIPKGLAFRDPALDVPKFVPKVDLQADYNTAKGVLGAGYQALRLARALLDGQELMFRGLHWVMEVLQATCRRTLEVARTSLLYLSSSLGTERFSSVAGTPEIQELKAAAELRSRLRTLAEVLSRCSQNITETQESLSSLNRELVKSRDQVHEDRSIQQIQCCLDKMNFIYKQFKKSRMRPGLGYNEEQIHKLDKVNFSHLAKRLLQVFQEECVQKYQASLVTHGKRMRVVHETRNHLRLVGCSVAACNTEAQGVQESLSKLLEELSHQLLQDRAKGAQASPPPIAPYPSPTRKDLLLHMQELCEGMKLLASDLLDNNRIIERLNRVPAPPDV
As to B1, the binding result is on record as “binds”.

Values taken from PMC5699845.
